In data set [1] the target is T1, Nrf2 (endogenous) (Homo sapiens (human diploid fibroblasts, HDFs)) (UniProt Q16236).
T1 sequence (looked up, limits assumed): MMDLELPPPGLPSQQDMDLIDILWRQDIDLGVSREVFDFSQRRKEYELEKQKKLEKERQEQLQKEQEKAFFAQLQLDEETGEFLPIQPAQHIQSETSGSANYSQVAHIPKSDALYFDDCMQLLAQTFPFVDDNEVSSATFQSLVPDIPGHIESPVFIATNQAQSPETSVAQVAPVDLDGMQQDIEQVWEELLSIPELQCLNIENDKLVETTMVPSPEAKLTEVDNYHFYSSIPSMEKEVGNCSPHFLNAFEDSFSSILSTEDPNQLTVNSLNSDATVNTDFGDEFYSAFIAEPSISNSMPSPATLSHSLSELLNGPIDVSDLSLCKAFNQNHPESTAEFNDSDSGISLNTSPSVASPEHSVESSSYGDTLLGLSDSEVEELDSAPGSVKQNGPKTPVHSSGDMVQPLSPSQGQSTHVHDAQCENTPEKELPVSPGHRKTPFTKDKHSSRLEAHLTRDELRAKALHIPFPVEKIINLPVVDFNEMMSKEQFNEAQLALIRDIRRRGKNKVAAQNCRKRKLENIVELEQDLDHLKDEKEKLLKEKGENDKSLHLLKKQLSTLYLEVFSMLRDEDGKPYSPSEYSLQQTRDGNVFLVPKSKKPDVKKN
As to the kind of experiment: EMSA supershift. As to conditions: anti-Nrf2 antibody, HDF nuclear extract; Beyotime Chemiluminescent EMSA Kit per manufacturer (binding buffer, salt, pH not stated); antibody pre-incubation 20 min on ice; 5% native PAGE in 0.5x TBE; protein in an extract. On the technique in general: A gel shift assay detects complexes by their altered migration in electrophoresis.

The target of data set [2] is T1, Nrf2 (endogenous) (Homo sapiens (human diploid fibroblasts, HDFs)). In words: competition EMSA. As to conditions: unlabeled competitor, 5- or 50-fold excess, against biotin GPX7-ARE, Beyotime Chemiluminescent EMSA Kit per manufacturer (binding buffer, salt, pH not stated), antibody pre-incubation 20 min on ice, 5% native PAGE in 0.5x TBE, protein in an extract, label: none (unlabeled competitor).

The exact form of at least one protein or probe is not confirmed. Results from cells or extracts need not show a direct contact. For part of these data: No signal at the amounts used counts as a negative. Protein sequences can lack the tags named with them.

This note sets out measurements from paper PMC6052468.

With “CTAGAGAGTGACTTGGCACTCAA (double strand) [GPX7-ARE]”, in data set [1], the binding result is recorded as “binds”. For the sequence “ACTGAGGGTGACTCAATAAAATC (double strand) [mHO1-ARE (HO-1-mARE)]”, the binding result in data set [2] (did not abrogate the complex) is “no binding”. “ACTGAGGGTGACTCAGCAAAATC (double strand) [HO1-ARE]”: in data set [2] (abrogated the complex), the binding result is given as “binds”.
